# Reference: the supplement of paper PMC8728848
# Some of the results follow.
# B1: OS9 (Arabidopsis thaliana) (protein)
# chain: MRGSHHHHHHGMASMTGGQQMGRDLYDDDDKSRLQIFPAHLVGTFSRNNREPKYKIEFLPEDSPFHPGDNLESMVMLDKHGNRFLCYLPKEEKATSGWTSSQQNISTVMMETQQLVKLKTPDELLQPLSEKCLFRQEGWWSYEFCHQKYVRQLHVEDENKIVQEFFLGTFDPEATAAFNQTVSDASTDASQRYHSHVYTNGTTCDLTGSPAEVEVRFVCAETRAMVTSITELSTCKYALTVQCPTLCKHPLFQLEKPVSHTIHCNAIPVEEDATRNKEEQAVDESPKMIADS
# Experiments:
# Experiment in all cases: glycan array binding signal (z-score within array); higher = stronger binding
# Conditions in all cases: glycan notation: IUPAC condensed, linker removed; mutation: R201A
# [1] = molecular target: Neu5Ac(a2-3)Gal(b1-4)GlcNAc(b1-3)[Neu5Ac(a2-3)Gal(b1-4)GlcNAc(b1-6)]GalNAc
# Method in brief: (§1)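 The binding signal is a Z-score computed within each array and averaged over linkers. Arrays of the same protein sequence at different concentrations or buffers were also averaged together. Data originate from 3228 arrays in the Consortium for Functional Glycomics database, kept only where the protein sequence was available.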
# [2] = molecular target: Neu5Ac(a2-3)Gal(b1-4)GlcNAc(b1-6)GalNAc
# Method in brief: as §1
# [3] = molecular target: Neu5Ac(a2-3)Gal(b1-4)GlcNAc(b1-6)[Gal(b1-3)]GalNAc
# Method in brief: as §1
# [4] = molecular target: Neu5Ac(a2-3)Gal(b1-4)GlcNAc(b1-6)[Neu5Ac(a2-3)Gal(b1-3)]GalNAc
# Method in brief: as §1
# [5] = molecular target: Neu5Ac(a2-3)Gal(b1-4)GlcNAc6S
# Method in brief: as §1
# [6] = molecular target: Neu5Ac(a2-3)Gal(b1-4)[Fuc(a1-3)]GlcNAc
# Method in brief: as §1
# [7] = molecular target: Neu5Ac(a2-3)Gal(b1-4)[Fuc(a1-3)]GlcNAc(b1-2)Man
# Method in brief: as §1
# [8] = molecular target: Neu5Ac(a2-3)Gal(b1-4)[Fuc(a1-3)]GlcNAc(b1-3)Gal
# Method in brief: as §1
# [9] = molecular target: Neu5Ac(a2-3)Gal(b1-4)[Fuc(a1-3)]GlcNAc(b1-3)Gal(b1-4)GlcNAc
# Method in brief: as §1
# [10] = molecular target: Neu5Ac(a2-3)Gal(b1-4)[Fuc(a1-3)]GlcNAc(b1-3)Gal(b1-4)[Fuc(a1-3)]GlcNAc(b1-3)Gal(b1-4)[Fuc(a1-3)]GlcNAc
# Method in brief: as §1
# [11] = molecular target: Neu5Ac(a2-3)Gal(b1-4)[Fuc(a1-3)]GlcNAc(b1-3)GalNAc
# Method in brief: as §1
# [12] = molecular target: Neu5Ac(a2-3)Gal(b1-4)[Fuc(a1-3)]GlcNAc(b1-6)[Gal(b1-3)]GalNAc
# Method in brief: as §1
# [13] = molecular target: Neu5Ac(a2-3)Gal(b1-4)[Fuc(a1-3)]GlcNAc(b1-6)[Neu5Ac(a2-3)Gal(b1-3)]GalNAc
# Method in brief: as §1
# [14] = molecular target: Neu5Ac(a2-3)Gal(b1-4)[Fuc(a1-3)]GlcNAc6S
# Method in brief: as §1
# [15] = molecular target: Neu5Ac(a2-3)Gal6S(b1-4)GlcNAc
# Method in brief: as §1
# [16] = molecular target: Neu5Ac(a2-3)Gal6S(b1-4)[Fuc(a1-3)]GlcNAc
# Method in brief: as §1
# [17] = molecular target: Neu5Ac(a2-3)GalNAc
# Method in brief: as §1
# [18] = molecular target: Neu5Ac(a2-3)GalNAc(b1-4)GlcNAc
# Method in brief: as §1
# [19] = molecular target: Neu5Ac(a2-3)[GalNAc(b1-4)]Gal(b1-4)Glc
# Method in brief: as §1
# [20] = molecular target: Neu5Ac(a2-3)[GalNAc(b1-4)]Gal(b1-4)GlcNAc
# Method in brief: as §1
# [21] = molecular target: Neu5Ac(a2-3)[GalNAc(b1-4)]Gal(b1-4)GlcNAc(b1-3)GalNAc
# Method in brief: as §1
# [22] = molecular target: Neu5Ac(a2-3)[Neu5Ac(a2-6)]GalNAc
# Method in brief: as §1
# [23] = molecular target: Neu5Ac(a2-6)Gal
# Method in brief: as §1
# [24] = molecular target: Neu5Ac(a2-6)Gal(b1-3)GlcNAc(b1-3)[Gal(b1-4)GlcNAc(b1-6)]Gal(b1-4)Glc
# Method in brief: as §1
# [25] = molecular target: Neu5Ac(a2-6)Gal(b1-4)Glc
# Method in brief: as §1
# [26] = molecular target: Neu5Ac(a2-6)Gal(b1-4)GlcNAc
# Method in brief: as §1
# [27] = molecular target: Neu5Ac(a2-6)Gal(b1-4)GlcNAc(b1-2)Man
# Method in brief: as §1
# [28] = molecular target: Neu5Ac(a2-6)Gal(b1-4)GlcNAc(b1-2)Man(a1-3)Man(b1-4)GlcNAc(b1-4)GlcNAc
# Method in brief: as §1
# [29] = molecular target: Neu5Ac(a2-6)Gal(b1-4)GlcNAc(b1-2)Man(a1-3)[Gal(b1-4)GlcNAc(b1-2)Man(a1-6)]Man(b1-4)GlcNAc(b1-4)GlcNAc
# Method in brief: as §1
# [30] = molecular target: Neu5Ac(a2-6)Gal(b1-4)GlcNAc(b1-2)Man(a1-3)[GlcNAc(b1-4)][Neu5Ac(a2-6)Gal(b1-4)GlcNAc(b1-2)Man(a1-6)]Man(b1-4)GlcNAc(b1-4)GlcNAc
# Method in brief: as §1
# [31] = molecular target: Neu5Ac(a2-6)Gal(b1-4)GlcNAc(b1-2)Man(a1-3)[Man(a1-6)]Man(b1-4)GlcNAc(b1-4)GlcNAc
# Method in brief: as §1
# [32] = molecular target: Neu5Ac(a2-6)Gal(b1-4)GlcNAc(b1-2)Man(a1-3)[Neu5Ac(a2-3)Gal(b1-4)GlcNAc(b1-2)Man(a1-6)]Man(b1-4)GlcNAc(b1-4)GlcNAc
# Method in brief: as §1
# [33] = molecular target: Neu5Ac(a2-6)Gal(b1-4)GlcNAc(b1-2)Man(a1-3)[Neu5Ac(a2-6)Gal(b1-4)GlcNAc(b1-2)Man(a1-6)]Man(b1-4)GlcNAc(b1-4)GlcNAc
# Method in brief: as §1
# [34] = molecular target: Neu5Ac(a2-6)Gal(b1-4)GlcNAc(b1-2)Man(a1-3)[Neu5Ac(a2-6)Gal(b1-4)GlcNAc(b1-2)Man(a1-6)]Man(b1-4)GlcNAc(b1-4)[Fuc(a1-6)]GlcNAc
# Method in brief: as §1
# [35] = molecular target: Neu5Ac(a2-6)Gal(b1-4)GlcNAc(b1-2)Man(a1-6)Man(b1-4)GlcNAc(b1-4)GlcNAc
# Method in brief: as §1
# [36] = molecular target: Neu5Ac(a2-6)Gal(b1-4)GlcNAc(b1-2)Man(a1-6)[Gal(b1-4)GlcNAc(b1-2)Man(a1-3)]Man(b1-4)GlcNAc(b1-4)GlcNAc
# Method in brief: as §1
# [37] = molecular target: Neu5Ac(a2-6)Gal(b1-4)GlcNAc(b1-2)Man(a1-6)[GlcNAc(b1-2)Man(a1-3)]Man(b1-4)GlcNAc(b1-4)GlcNAc
# Method in brief: as §1
# [38] = molecular target: Neu5Ac(a2-6)Gal(b1-4)GlcNAc(b1-2)Man(a1-6)[Man(a1-3)]Man(b1-4)GlcNAc(b1-4)GlcNAc
# Method in brief: as §1
# [39] = molecular target: Neu5Ac(a2-6)Gal(b1-4)GlcNAc(b1-2)[Neu5Ac(a2-6)Gal(b1-4)GlcNAc(b1-4)]Man(a1-3)[GlcNAc(b1-4)][Neu5Ac(a2-6)Gal(b1-4)GlcNAc(b1-2)[Neu5Ac(a2-6)Gal(b1-4)GlcNAc(b1-6)]Man(a1-6)]Man(b1-4)GlcNAc(b1-4)GlcNAc
# Method in brief: as §1
# [40] = molecular target: Neu5Ac(a2-6)Gal(b1-4)GlcNAc(b1-2)[Neu5Ac(a2-6)Gal(b1-4)GlcNAc(b1-4)]Man(a1-3)[GlcNAc(b1-4)][Neu5Ac(a2-6)Gal(b1-4)GlcNAc(b1-4)Man(a1-6)]Man(b1-4)GlcNAc(b1-4)GlcNAc
# Method in brief: as §1
# [41] = molecular target: Neu5Ac(a2-6)Gal(b1-4)GlcNAc(b1-2)[Neu5Ac(a2-6)Gal(b1-4)GlcNAc(b1-6)]Man(a1-6)[Neu5Ac(a2-6)Gal(b1-4)GlcNAc(b1-2)Man(a1-3)][GlcNAc(b1-4)]Man(b1-4)GlcNAc(b1-4)GlcNAc
# Method in brief: as §1
# [42] = molecular target: Neu5Ac(a2-6)Gal(b1-4)GlcNAc(b1-3)Gal(b1-3)GlcNAc
# Method in brief: as §1
# [43] = molecular target: Neu5Ac(a2-6)Gal(b1-4)GlcNAc(b1-3)Gal(b1-4)GlcNAc
# Method in brief: as §1
# [44] = molecular target: Neu5Ac(a2-6)Gal(b1-4)GlcNAc(b1-3)Gal(b1-4)GlcNAc(b1-2)Man(a1-3)[Neu5Ac(a2-6)Gal(b1-4)GlcNAc(b1-3)Gal(b1-4)GlcNAc(b1-2)Man(a1-6)]GalNAc
# Method in brief: as §1
# [45] = molecular target: Neu5Ac(a2-6)Gal(b1-4)GlcNAc(b1-3)Gal(b1-4)GlcNAc(b1-3)Gal(b1-4)GlcNAc
# Method in brief: as §1
binder,measurement,setting,value
B1,glycan array binding signal (z-score),[1],1.01
same,glycan array binding signal (z-score),[2],-0.368
same,glycan array binding signal (z-score),[3],-0.726
same,glycan array binding signal (z-score),[4],-0.368
same,glycan array binding signal (z-score),[5],-0.49
same,glycan array binding signal (z-score),[6],-0.306
same,glycan array binding signal (z-score),[7],-0.537
same,glycan array binding signal (z-score),[8],-1.16
same,glycan array binding signal (z-score),[9],1.98
same,glycan array binding signal (z-score),[10],0.079
same,glycan array binding signal (z-score),[11],0.493
same,glycan array binding signal (z-score),[12],-0.48
same,glycan array binding signal (z-score),[13],-0.099
same,glycan array binding signal (z-score),[14],-1.1
same,glycan array binding signal (z-score),[15],-0.053
same,glycan array binding signal (z-score),[16],0.12
same,glycan array binding signal (z-score),[17],-0.751
same,glycan array binding signal (z-score),[18],-0.513
same,glycan array binding signal (z-score),[19],0.019
same,glycan array binding signal (z-score),[20],0.238
same,glycan array binding signal (z-score),[21],1.18
same,glycan array binding signal (z-score),[22],-0.469
same,glycan array binding signal (z-score),[23],0.561
same,glycan array binding signal (z-score),[24],-0.276
same,glycan array binding signal (z-score),[25],-0.544
same,glycan array binding signal (z-score),[26],-0.705
same,glycan array binding signal (z-score),[27],-0.879
same,glycan array binding signal (z-score),[28],1.26
same,glycan array binding signal (z-score),[29],-0.578
same,glycan array binding signal (z-score),[30],-0.484
same,glycan array binding signal (z-score),[31],-1.06
same,glycan array binding signal (z-score),[32],1.46
same,glycan array binding signal (z-score),[33],0.37
same,glycan array binding signal (z-score),[34],-0.474
same,glycan array binding signal (z-score),[35],-0.225
same,glycan array binding signal (z-score),[36],-0.323
same,glycan array binding signal (z-score),[37],-0.588
same,glycan array binding signal (z-score),[38],0.291
same,glycan array binding signal (z-score),[39],-0.834
same,glycan array binding signal (z-score),[40],0.408
same,glycan array binding signal (z-score),[41],-0.945
same,glycan array binding signal (z-score),[42],-0.109
same,glycan array binding signal (z-score),[43],-0.514
same,glycan array binding signal (z-score),[44],1.5
same,glycan array binding signal (z-score),[45],-0.58

# 2 entries drawn at random from those above, as already listed:
binder,measurement,setting,value
B1,glycan array binding signal (z-score),[43],-0.514
same,glycan array binding signal (z-score),[22],-0.469
